Data on 27 compounds can be found in the supplement of paper PMC10735217.

This is one part of the list. Single values are uncertain here, since repeats match poorly.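 The human kidney-derived cells carry a stably integrated construct of eight TEAD-binding elements driving luciferase, read by luminescence in a drug-repurposing library screen. A compound counts as a hit when its signal is more than five robust Z scores above the plate mean.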

In this test the test system is HEK293A TEAD-LUC reporter. As to the kind of experiment: TEAD-luciferase reporter activity (YAP activation), robust Z score vs plate; higher = stronger YAP/TEAD activation. The settings on record: 24 h. (In general: Reporter assays use an easily measured gene product as a stand-in for the process of interest.)

For the compound `CN1CC[C@H](N(C)C(=O)N2CC(c3cc(F)ccc3F)=C[C@@]2(CO)c2ccccc2)[C@H](F)C1`, the TEAD-luciferase reporter activity runs as follows: (compound concentration: 200 nM) inactive: -0.212; (compound concentration: 2 uM) inactive: -0.839; (compound concentration: 10 uM) inactive: 0.625.
For the compound `Fc1ccc(Cn2c(NC3CCNCC3)nc3ccccc32)cc1`, the TEAD-luciferase reporter activity reads like this: (compound concentration: 200 nM) inactive: -1.47; (compound concentration: 2 uM) inactive: 0.0787; (compound concentration: 10 uM) inactive: 0.992.
The corresponding values for `CO[C@H]1C[C@@H](CO[C@H]2CC[C@H](C(=O)O)CC2)N(C(=O)Cc2cc(Cl)c(NC(=O)c3cn(C)c4ccccc34)cc2Cl)C1` are inactive: -1.33, inactive: 0.178 and inactive: -0.348.
As for `CC[P](CC)(CC)=[Au][S][C@@H]1O[C@H](COC(C)=O)[C@@H](OC(C)=O)[C@H](OC(C)=O)[C@H]1OC(C)=O` [Auranofin], the TEAD-luciferase reporter activity was inactive: 0.569 (compound concentration: 200 nM) and active: 5.93 (compound concentration: 10 uM).
As for `CC[P](CC)(CC)=[Au][S][C@@H]1O[C@H](COC(C)=O)[C@@H](OC(C)=O)[C@H](OC(C)=O)[C@H]1OC(C)=O`, the TEAD-luciferase reporter activity (compound concentration: 2 uM) is inactive: 4.09.
Take `COc1cnc(OC)c2c1c(C(=O)C(=O)N1CCN(C(=O)c3ccccc3)CC1)cn2COP(=O)(O)O`: the TEAD-luciferase reporter activity reads like this: (compound concentration: 200 nM) inactive: -0.961; (compound concentration: 2 uM) inactive: -0.67; (compound concentration: 10 uM) inactive: -0.835.
The matching figures for `COc1cc2c(cc1OC)C(C)N(CCc1ccc(N)cc1)CC2` (stereo not given): inactive: 0.275, inactive: 2.21 and inactive: -0.471.
As to `C[n+]1ccccc1C=NO` [Pralidoxime chloride], the TEAD-luciferase reporter activity reads like this: (compound concentration: 200 nM) inactive: 0.759; (compound concentration: 2 uM) inactive: -1.63; (compound concentration: 10 uM) inactive: 0.578.
Regarding `COc1ccc(Cl)c(Nc2ncnc3cc(OCC4CCN(C)CC4)c(OC)cc23)c1`, the TEAD-luciferase reporter activity runs as follows: (compound concentration: 200 nM) inactive: 0.487; (compound concentration: 2 uM) inactive: -1.98; (compound concentration: 10 uM) inactive: -1.87.
As for `c1ccc2c(c1)cc(-c1nn[nH]n1)c1nnnn12`, the TEAD-luciferase reporter activity is, setting by setting: (compound concentration: 200 nM) inactive: 0.331; (compound concentration: 2 uM) inactive: -0.534; (compound concentration: 10 uM) inactive: -1.46.
The corresponding values for `Nc1ccn(C2CCC(CO)O2)c(=O)n1` (stereo not given) [zalcitabine] are inactive: -0.738, inactive: 0.388 and inactive: 1.31.
The matching figures for `Cc1cccc(C(OCCN(C)C)c2ccccc2)c1` (stereo not given): inactive: -0.164, inactive: 3.99 and inactive: 2.68.
As to `C=CCNC(=O)SC1=NCCS1`, the TEAD-luciferase reporter activity is inactive: -2.39 (compound concentration: 200 nM), inactive: -2.27 (compound concentration: 2 uM) and inactive: -0.989 (compound concentration: 10 uM).
The matching figures for `CC(C)(C)n1cc(C(=O)O)c(=O)c2cc(F)c(N3C[C@H]4C[C@@H]3CN4)nc21`: inactive: -1.97, inactive: -0.688 and inactive: -1.13.
The corresponding values for `CNC(=O)[C@@H](Cc1ccccc1)N(C)C(=O)[C@@H](Cc1ccc2ccccc2c1)N(C)C(=O)/C=C/CC(C)(C)N` [Tabimorelin] are inactive: 1.79, inactive: -0.886 and inactive: -1.13.
Consider `Cc1ccc2c(Br)cc(Br)c(OC(=O)c3ccc(Cl)cc3)c2n1`, for which the TEAD-luciferase reporter activity (compound concentration: 200 nM) was inactive: -0.0349, the TEAD-luciferase reporter activity (compound concentration: 2 uM) was inactive: 0.0138 and the TEAD-luciferase reporter activity (compound concentration: 10 uM) was inactive: 0.0953.
Take `COc1ccc(OC)c(-n2c(N)nc3cc(C(F)(F)F)ccc32)c1`: the TEAD-luciferase reporter activity (compound concentration: 200 nM) is inactive: 0.0968, the TEAD-luciferase reporter activity (compound concentration: 2 uM) is inactive: -0.225 and the TEAD-luciferase reporter activity (compound concentration: 10 uM) was inactive: 0.643.
The matching figures for `OC(c1ccccc1)C1CCN(CCc2ccccc2)CC1` (stereo not given) [Glemanserin]: inactive: -0.574, inactive: -1.15 and inactive: 0.168.
The matching figures for `CS(=O)(=O)N[C@@H](CCCCN)C(=O)NC[C@H](CC1(C(=O)N[C@@H](Cc2ccc(O)cc2)C(=O)O)CCCC1)C(=O)O`: inactive: -0.0587, inactive: -0.0331 and inactive: 0.643.
The matching figures for `CC(C)(Sc1cc(C(C)(C)C)c(O)c(C(C)(C)C)c1)Sc1cc(C(C)(C)C)c(O)c(C(C)(C)C)c1` [Panavir]: inactive: -0.536, inactive: 3.87 and inactive: -0.609.
With `NCCCC(=O)O`, the TEAD-luciferase reporter activity reads like this: (compound concentration: 200 nM) inactive: -0.7; (compound concentration: 2 uM) inactive: -0.275; (compound concentration: 10 uM) inactive: -0.0766.
On to `COC(=O)C1=C(C)NC(C)=C(C(=O)OCCc2ccc(N3CCN(C(c4ccccc4)c4ccccc4)CC3)cc2)C1c1cccc([N+](=O)[O-])c1` (stereo not given), for which the TEAD-luciferase reporter activity was inactive: -0.543 (compound concentration: 200 nM), inactive: -0.162 (compound concentration: 2 uM) and inactive: -0.0128 (compound concentration: 10 uM).
For the compound `CCCCCn1c(=O)[nH]c(=O)c2[nH]c(Cl)nc21`, the TEAD-luciferase reporter activity is inactive: 2.27 (compound concentration: 200 nM), inactive: -0.605 (compound concentration: 2 uM) and inactive: 0.0803 (compound concentration: 10 uM).
The matching figures for `COc1ccc([C@@H]2c3ncccc3[C@H](c3ccc4c(c3)OCO4)[C@H]2C(=O)O)cc1`: inactive: -0.436, inactive: -0.983 and inactive: -0.0149.
As to `CCCCCCCCCCCCCCCCCCCCCCO` [docosanol], the TEAD-luciferase reporter activity (compound concentration: 2 uM) was inactive: -1.73.
For `CCCCCCCCCCCCCCCCCCCCCCO` [1-Docosanol], the TEAD-luciferase reporter activity by setting is: (compound concentration: 200 nM) inactive: -1.57; (compound concentration: 10 uM) inactive: 1.13.
With `CC(=O)SC[C@@H](C)C(=O)N1CCC[C@H]1C(=O)N[C@@H](Cc1ccccc1)C(=O)O` [alacepril], the TEAD-luciferase reporter activity runs as follows: (compound concentration: 200 nM) inactive: 1.61; (compound concentration: 2 uM) inactive: -0.679; (compound concentration: 10 uM) inactive: 0.516.
